Measured values from patent US9452977B2, “Cyclopentylacrylamide derivative” (KYORIN PHARMACEUTICAL CO., LTD., priority 2008, dated 2016).
Some entries share one result that the patent states for a list of compounds. For at least one compound, name, drawing or mass did not settle the structure.

Sequences of proteins named here, by UniProt entry; tags and fusion partners are left off. A change or cut given only in a name is not applied to a line headed by its entry.
UniProt Q12809: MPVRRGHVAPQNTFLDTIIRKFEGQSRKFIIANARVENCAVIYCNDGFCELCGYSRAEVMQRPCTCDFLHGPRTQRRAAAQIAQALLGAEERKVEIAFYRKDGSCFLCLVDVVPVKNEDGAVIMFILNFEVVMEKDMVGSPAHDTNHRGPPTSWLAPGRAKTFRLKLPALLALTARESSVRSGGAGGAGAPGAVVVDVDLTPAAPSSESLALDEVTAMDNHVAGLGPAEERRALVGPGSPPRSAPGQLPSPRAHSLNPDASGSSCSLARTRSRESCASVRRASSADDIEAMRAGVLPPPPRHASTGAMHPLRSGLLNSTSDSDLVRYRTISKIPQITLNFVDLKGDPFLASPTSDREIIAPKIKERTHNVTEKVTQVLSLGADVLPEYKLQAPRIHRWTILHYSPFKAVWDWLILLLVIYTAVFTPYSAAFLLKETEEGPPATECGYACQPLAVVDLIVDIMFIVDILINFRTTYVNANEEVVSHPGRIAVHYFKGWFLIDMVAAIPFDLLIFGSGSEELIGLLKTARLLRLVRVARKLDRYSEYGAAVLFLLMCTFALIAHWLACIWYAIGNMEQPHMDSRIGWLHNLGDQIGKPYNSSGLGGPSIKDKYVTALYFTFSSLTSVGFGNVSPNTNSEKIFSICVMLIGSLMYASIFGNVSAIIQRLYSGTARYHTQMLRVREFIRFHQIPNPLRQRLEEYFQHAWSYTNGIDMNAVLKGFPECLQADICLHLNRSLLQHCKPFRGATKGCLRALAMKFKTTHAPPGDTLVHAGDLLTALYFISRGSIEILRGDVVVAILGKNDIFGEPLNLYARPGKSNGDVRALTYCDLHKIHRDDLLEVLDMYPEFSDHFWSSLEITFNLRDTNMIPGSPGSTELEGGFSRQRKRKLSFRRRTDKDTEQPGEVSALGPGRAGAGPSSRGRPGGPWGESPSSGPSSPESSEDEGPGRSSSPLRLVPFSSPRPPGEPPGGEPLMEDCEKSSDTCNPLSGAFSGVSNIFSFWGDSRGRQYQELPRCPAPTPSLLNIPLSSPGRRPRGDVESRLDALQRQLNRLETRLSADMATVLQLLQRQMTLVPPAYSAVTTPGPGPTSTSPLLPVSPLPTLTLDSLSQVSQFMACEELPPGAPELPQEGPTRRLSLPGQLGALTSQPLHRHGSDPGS

Assays:
ICR mice = experiment: Hypoglycemia activity test; assay type: in vivo; conditions: oral 30 mg/kg after 2-hour fasting, 0.5, 2 and 4 hours after administration
human hepatic GK = biological target: T1, human hepatic GK (Homo sapiens, UniProt P35557); experiment: GK activity measurement (G6PDH-coupled NADH production); assay type: biochemical; conditions: compound added at 10 μM; 5 mM D-glucose; 25° C.
T1 construct: His6 (C); made in house; host or cells: E. coli
T1 sequence (P35557 1-466 isoform P35557-2): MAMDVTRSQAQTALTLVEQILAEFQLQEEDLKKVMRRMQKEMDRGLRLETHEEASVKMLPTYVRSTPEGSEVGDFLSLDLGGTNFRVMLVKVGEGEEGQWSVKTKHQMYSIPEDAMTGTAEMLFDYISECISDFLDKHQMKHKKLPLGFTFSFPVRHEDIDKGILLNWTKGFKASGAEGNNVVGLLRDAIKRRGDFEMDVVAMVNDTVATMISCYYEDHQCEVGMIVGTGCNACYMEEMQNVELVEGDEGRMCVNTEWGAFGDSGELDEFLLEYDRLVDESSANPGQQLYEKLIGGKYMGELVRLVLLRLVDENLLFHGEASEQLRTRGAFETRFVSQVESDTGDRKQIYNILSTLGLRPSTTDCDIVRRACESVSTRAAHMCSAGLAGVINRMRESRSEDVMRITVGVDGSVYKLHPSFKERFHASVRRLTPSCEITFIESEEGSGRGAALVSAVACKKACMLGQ
Protocol: The GK activity was determined not by direct measurement of the amount of glucose-6-phosphate produced by the enzyme reaction but by measurement of the amount of NADH produced by a […] reaction.
(Preparation of Recombinant GK)
Cloning of Human Hepatic GK and Human Pancreas GK and Acquisition of Recombinant Proteins
Based on a human hepatic GK sequence available from GeneBank (Accession Number: NM_033507) and a human pancreas GK sequence (Accession Number: NM_000162), PCR cloning was performed using Pyrobest DNA Polymerase (product of Takara Bio Inc.) with human hepatic cDNA (product of Clontech Laboratories, Inc.) and human pancreas cDNA (product of Clontech Laboratories, Inc.) used as templates. The enzymes were expressed in a soluble form in E. coli as His-tagged fusion proteins (tagged with six His residues at the C-terminus. The E. coli cells were sonicated and centrifuged, and the supernatant was collected. The collected supernatant was purified by metal chelate affinity chromatography.
After purification, the enzymes were stored in 12.5 mM HEPES (pH 7.3), 75 mM KCl, 0.5 mM MgCl2, 0.5 mM DTT, 2.5 mM glucose, and 50% glycerol at −80° C.
(Measurement of GK Activity)
The assay was performed at 25° C. using a half-area flat-bottom 96-well plate (product of Costar). […]
The test compound was dissolved in DMSO in advance, and 2 μL of the prepared solution was added to 20 μL of a solution containing the HEPES buffer solution (pH 7.1), KCl, MgCl2, D-glucose, ATP, NAD, and dithiothreitol. […] The GK was added such that an increase in absorbance per minute in the presence of 5% DMSO was between 0.002 to 0.003. After the reaction was initiated, the increase in absorbance at 340 nm was measured for 15 minutes using a SPECTRAmax 190 microplate spectrophotometer (product of Molecular Devices Corporation), and the activity was evaluated using the increase in the first 10 minutes.

hERG channel = biological target: T2, hERG channel (Homo sapiens, UniProt Q12809); experiment: hERG current suppression test (whole-cell patch clamp); assay type: cell-based; conditions: 30 μM; hERG-transfected HEK 293 cell; 10 minutes after application; 34° C.
T2 construct: expressed in transfected cells; host or cells: HEK 293

Molecule	glucose reduction ratio (average of reduction ratios of blood glucose level relative to Pre value) (ICR mice) [%]	effect of activating the human hepatic GK relative to a well not containing the compounds (human hepatic GK) [%]	hERG maximum tail current rate of change (suppression rate) (hERG channel) [%]
O=C(Nc1ncns1)/C(=C/C1CC(F)C(F)C1)c1ccc(S(=O)(=O)C2CC2)cc1 (stereo not drawn) [Compound 11B, (E)-2-(4-(cyclopropylsulfonyl)phenyl)-3-[(1α,3α,4α)-3,4-difluorocyclopentyl]-N-(1,2,4-thiadiazol-5-yl)acrylamide]	≥ 35	–	–
CS(=O)(=O)c1ccc(/C(=C\[C@H]2C[C@@H](F)[C@@H](F)C2)C(=O)Nc2cnccn2)cc1 [Compound 26A, (E)-3-[(1α,3α,4α)-3,4-difluorocyclopentyl]-2-(4-(methylsulfonyl)phenyl)-N-(pyrazin-2-yl)acrylamide]	≥ 35	≥ 200	–
O=C(Nc1ccn(CCO)n1)/C(=C/C1CC(F)C(F)C1)c1ccc(S(=O)(=O)C2CC2)cc1 (stereo not drawn) [Compound 41B, (E)-2-(4-(cyclopropylsulfonyl)phenyl)-3-[(1α,3α,4α)-3,4-difluorocyclopentyl]-N-[1-(2-hydroxyethyl)-1H-pyrazol-3-yl]acrylamide]	≥ 35	≥ 200	≤ 50
CS(=O)(=O)c1ccc(/C(=C\C2CC(F)C(F)C2)C(=O)Nc2ccn(CCO)n2)cc1 (stereo not drawn) [Compound 49A, (E)-3-[(1α,3α,4α)-3,4-difluorocyclopentyl]-N-[1-(2-hydroxyethyl)-1H-pyrazol-3-yl]-2-(4-(methylsulfonyl)phenyl)acrylamide]	–	≥ 200	–
(E)-2-(4-(cyclopropylsulfonyl)phenyl)-3-[(1α,3α,4α)-3,4-difluorocyclopentyl]-N-(1-methyl-1H-pyrazol-3-yl)acrylamide [Compound 38B]	–	–	≤ 50
(E)-2-(4-(cyclopropylsulfonyl)phenyl)-3-[(1α,3α,4α)-3,4-difluorocyclopentyl]-N-[5-(2-(hydroxyethoxy)pyrazin-2-yl)acrylamide [Compound 31B]	–	–	≤ 50
(E)-3-[(1α,3α,4α)-3,4-difluorocyclopentyl]-N-[1-methyl-1H-pyrazol-3-yl]-2-(4-(methylsulfonyl)phenyl)acrylamide [Compound 44A]	–	–	≤ 50
(E)-3-[(1α,3α,4α)-3,4-difluorocyclopentyl]-N-[5-(2-methoxyethoxyl)pyrazin-2-yl]-2-(4-(methylsulfonyl)phenyl)acrylamide [Compound 31A]	–	–	≤ 50
